According to US12729225B2, “Non-canonical SWI/SNF complex and uses thereof” (Dana-Farber Cancer Institute, Inc., priority 2018, dated 2026):

B1: DDX1 (protein, UniProt Q92499 1-740, looked up)
ATP-dependent RNA helicase …: MAAFSEMGVMPEIAQAVEEMDWLLPTDIQAESIPLILGGGDVLMAAETGSGKTGAFSIPVIQIVYETLKDQQEGKKGKTTIKTGASVLNKWQMNPYDRGSAFAIGSDGLCCQSREVKEWHGCRATKGLMKGKHYYEVSCHDQGLCRVGWSTMQASLDLGTDKFGFGFGGTGKKSHNKQFDNYGEEFTMHDTIGCYLDIDKGHVKFSKNGKDLGLAFEIPPHMKNQALFPACVLKNAELKFNFGEEEFKFPPKDGFVALSKAPDGYIVKSQHSGNAQVTQTKFLPNAPKALIVEPSRELAEQTLNNIKQFKKYIDNPKLRELLIIGGVAARDQLSVLENGVDIVVGTPGRLDDLVSTGKLNLSQVRFLVLDEADGLLSQGYSDFINRMHNQIPQVTSDGKRLQVIVCSATLHSFDVKKLSEKIMHFPTWVDLKGEDSVPDTVHHVVVPVNPKTDRLWERLGKSHIRTDDVHAKDNTRPGANSPEMWSEAIKILKGEYAVRAIKEHKMDQAIIFCRTKIDCDNLEQYFIQQGGGPDKKGHQFSCVCLHGDRKPHERKQNLERFKKGDVRFLICTDVAARGIDIHGVPYVINVTLPDEKQNYVHRIGRVGRAERMGLAISLVATEKEKVWYHVCSSRGKGCYNTRLKEDGGCTIWYNEMQLLSEIEEHLNCTISQVEPDIKVPVDEFDGKVTYGQKRAAGGGSYKGHVDILAPTVQELAALEKEAQTSFLHLGYLPNQLFRTF
B2: DHX15 (protein)
chain: MSKRHRLDLGEDYPSGKKRAGTDGKDRDRDRDREDRSKDRDRERDRGDREREREKEKEKELRASTNAMLISAGLPPLKASHSAHSTHSAHSTHSTHSAHSTHAGHAGHTSLPQCINPFTNLPHTPRYYDILKKRLQLPVWEYKDRFTDILVRHQSFVLVGETGSGKTTQIPQWCVEYMRSLPGPKRGVACTQPRRVAAMSVAQRVADEMDVMLGQEVGYSIRFEDCSSAKTILKYMTDGMLLREAMNDPLLERYGVIILDEAHERTLATDILMGVLKEVVRQRSDLKVIVMSATLDAGKFQIYFDNCPLLTIPGRTHPVEIFYTPEPERDYLEAAIRTVIQIHMCEEEEGDLLLFLTGQEEIDEACKRIKREVDDLGPEVGDIKIIPLYSTLPPQQQQRIFEPPPPKKQNGAIGRKVVVSTNIAETSLTIDGVVFVIDPGFAKQKVYNPRIRVESLLVTAISKASAQQRAGRAGRTRPGKCFRLYTEKAYKTEMQDNTYPEILRSNLGSVVLQLKKLGIDDLVHFDFMDPPAPETLMRALELLNYLAALNDDGDLTELGSMMAEFPLDPQLAKMVIASCDYNCSNEVLSITAMLSVPQCFVRPTEAKKAADEAKMRFAHIDGDHLTLLNVYHAFKQNHESVQWCYDNFINYRSLMSADNVRQQLSRIMDRFNLPRRSTDFTSRDYYINIRKALVTGYFMQVAHLERTGHYLTVKDNQVVQLHPSTVLDHKPEWVLYNEFVLTTKNYIRTCTDIKPEWLVKIAPQYYDMSNFPQCEAKRQLDRIIAKLQSKEYSQY
B3: TEX10 (protein, UniProt Q9NXF1 1-929, looked up)
Testis-expressed protein 10: MTKKRKRQHDFQKVKLKVGKKKPKLQNATPTNFKTKTIHLPEQLKEDGTLPTNNRKLNIKDLLSQMHHYNAGVKQSALLGLKDLLSQYPFIIDAHLSNILSEVTAVFTDKDANVRLAAVQLLQFLAPKIRAEQISPFFPLVSAHLSSAMTHITEGIQEDSLKVLDILLEQYPALITGRSSILLKNFVELISHQQLSKGLINRDRSQSWILSVNPNRRLTSQQWRLKVLVRLSKFLQALADGSSRLRESEGLQEQKENPHATSNSIFINWKEHANDQQHIQVYENGGSQPNVSSQFRLRYLVGGLSGVDEGLSSTENLKGFIEIIIPLLIECWVEAVPPQLATPVGNGIEREPLQVMQQVLNIISLLWKLSKQQDETHKLESWLRKNYLIDFKHHFMSRFPYVLKEITKHKRKEPNKSIKHCTVLSNNIDHLLLNLTLSDIMVSLANASTLQKDCSWIEMIRKFVTETLEDGSRLNSKQLNRLLGVSWRLMQIQPNREDTETLIKAVYTLYQQRGLILPVRTLLLKFFSKIYQTEELRSCRFRYRSKVLSRWLAGLPLQLAHLGSRNPELSTQLIDIIHTAAARANKELLKSLQATALRIYDPQEGAVVVLPADSQQRLVQLVYFLPSLPADLLSRLSRCCIMGRLSSSLAAMLIGILHMRSSFSGWKYSAKDWLMSDVDYFSFLFSTLTGFSKEELTWLQSLRGVPHVIQTQLSPVLLYLTDLDQFLHHWDVTEAVFHSLLVIPARSQNFDILQSAISKHLVGLTVIPDSTAGCVFGVICKLLDHTCVVSETLLPFLASCCYSLLYFLLTIEKGEAEHLRKRDKLWGVCVSILALLPRVLRLMLQSLRVNRVGPEELPVVGQLLRLLLQHAPLRTHMLTNAILVQQIIKNITTLKSGSVQEQWLTDLHYCFNVYITGHPQGPSALATVY
B4: NOC3L (protein, UniProt Q8WTT2 1-800, looked up)
Nucleolar complex protein 3 …: MKARRNKKQIPSFRKLIKTSKVKLENKLKNKQFKQQSTLKKYRKEQRKLRQAVKDAVSKKPIPLENPKEKRPGKRIEREEEEEEEALPLDMMDEDDLQLMKDLGQRVSFLTRDLSSSEPVHAKKRKHERIIDKYEKIPRTLQTAPEKELIHLLPIKDKSGIIPQTREKPVTDSNKDEEDQEEERELEEEIIEDPIQELTIEEHLIERKKKLQEKKMHIAALASAILSDPENNIKKLKELRSMLMEQDPDVAVTVRKLVIVSLMELFKDITPSYKIRPLTEAEKSTKTRKETQKLREFEEGLVSQYKFYLENLEQMVKDWKQRKLKKSNVVSLKAYKGLAEVAVKSLCELLVALPHFNFHNNIIVLIVPLMNDMSKLISEMCCEAVKKLFKQDKLGQASLGVIKVISGFVKGRNYEVRPEMLKTFLCLRIKEVEVKKDTEDINKPKKFMTFKEKRKSLSRMQRKWKKAEEKLERELREAEASESTEKKLKLHTETLNIVFVTYFRILKKAQRSPLLPAVLEGLAKFAHLINVEFFDDLLVVLHTLIESGDLSYQESLHCVQTAFHILSGQGDVLNIDPLKFYTHLYKTLFKLHAGATNEGVEIVLQCLDVMLTKRRKQVSQQRALAFIKRLCTLALHVLPNSSIGILATTRILMHTFPKTDLLLDSESQGSGVFLPELDEPEYCNAQNTALWELHALRRHYHPIVQRFAAHLIAGAPSEGSGALKPELSRRSATELFEAYSMAEMTFNPPVESSNPKIKGKFLQGDSFLNEDLNQLIKRYSSEVATESPLDFTKYLKTSLH
B5: HNRNPA3 (protein, UniProt P51991 1-378, looked up)
Heterogeneous nuclear …: MEVKPPPGRPQPDSGRRRRRRGEEGHDPKEPEQLRKLFIGGLSFETTDDSLREHFEKWGTLTDCVVMRDPQTKRSRGFGFVTYSCVEEVDAAMCARPHKVDGRVVEPKRAVSREDSVKPGAHLTVKKIFVGGIKEDTEEYNLRDYFEKYGKIETIEVMEDRQSGKKRGFAFVTFDDHDTVDKIVVQKYHTINGHNCEVKKALSKQEMQSAGSQRGRGGGSGNFMGRGGNFGGGGGNFGRGGNFGGRGGYGGGGGGSRGSYGGGDGGYNGFGGDGGNYGGGPGYSSRGGYGGGGPGYGNQGGGYGGGGGYDGYNEGGNFGGGNYGGGGNYNDFGNYSGQQQSNYGPMKGGSFGGRSSGSPYGGGYGSGGGSGGYGSRRF
B6: DHX37 (protein, UniProt Q8IY37 1-1157, looked up)
Probable ATP-dependent RNA …: MGKLRRRYNIKGRQQAGPGPSKGPPEPPPVQLELEDKDTLKGVDASNALVLPGKKKKKTKAPPLSKKEKKPLTKKEKKVLQKILEQKEKKSQRAEMLQKLSEVQASEAEMRLFYTTSKLGTGNRMYHTKEKADEVVAPGQEKISSLSGAHRKRRRWPSAEEEEEEEEESESELEEESELDEDPAAEPAEAGVGTTVAPLPPAPAPSSQPVPAGMTVPPPPAAAPPLPRALAKPAVFIPVNRSPEMQEERLKLPILSEEQVIMEAVAEHPIVIVCGETGSGKTTQVPQFLYEAGFSSEDSIIGVTEPRRVAAVAMSQRVAKEMNLSQRVVSYQIRYEGNVTEETRIKFMTDGVLLKEIQKDFLLLRYKVVIIDEAHERSVYTDILIGLLSRIVTLRAKRNLPLKLLIMSATLRVEDFTQNPRLFAKPPPVIKVESRQFPVTVHFNKRTPLEDYSGECFRKVCKIHRMLPAGGILVFLTGQAEVHALCRRLRKAFPPSRARPQEKDDDQKDSVEEMRKFKKSRARAKKARAEVLPQINLDHYSVLPAGEGDEDREAEVDEEEGALDSDLDLDLGDGGQDGGEQPDASLPLHVLPLYSLLAPEKQAQVFKPPPEGTRLCVVATNVAETSLTIPGIKYVVDCGKVKKRYYDRVTGVSSFRVTWVSQASADQRAGRAGRTEPGHCYRLYSSAVFGDFEQFPPPEITRRPVEDLILQMKALNVEKVINFPFPTPPSVEALLAAEELLIALGALQPPQKAERVKQLQENRLSCPITALGRTMATFPVAPRYAKMLALSRQHGCLPYAITIVASMTVRELFEELDRPAASDEELTRLKSKRARVAQMKRTWAGQGASLKLGDLMVLLGAVGACEYASCTPQFCEANGLRYKAMMEIRRLRGQLTTAVNAVCPEAELFVDPKMQPPTESQVTYLRQIVTAGLGDHLARRVQSEEMLEDKWRNAYKTPLLDDPVFIHPSSVLFKELPEFVVYQEIVETTKMYMKGVSSVEVQWIPALLPSYCQFDKPLEEPAPTYCPERGRVLCHRASVFYRVGWPLPAIEVDFPEGIDRYKHFARFLLEGQVFRKLASYRSCLLSSPGTMLKTWARLQPRTESLLRALVAEKADCHEALLAAWKKNPKYLLAEYCEWLPQAMHPDIEKAWPPTTVH
B7: UTP15 (protein, UniProt Q8TED0 2-518, looked up)
U3 small nucleolar …: AGYKPVAIQTYPILGEKITQDTLYWNNYKTPVQIKEFGAVSKVDFSPQPPYNYAVTASSRIHIYGRYSQEPIKTFSRFKDTAYCATFRQDGRLLVAGSEDGGVQLFDISGRAPLRQFEGHTKAVHTVDFTADKYHVVSGADDYTVKLWDIPNSKEILTFKEHSDYVRCGCASKLNPDLFITGSYDHTVKMFDARTSESVLSVEHGQPVESVLLFPSGGLLVSAGGRYVKVWDMLKGGQLLVSLKNHHKTVTCLCLSSSGQRLLSGSLDRKVKVYSTTSYKVVHSFDYAASILSLALAHEDETIVVGMTNGILSVKHRKSEAKKESLPRRRRPAYRTFIKGKNYMKQRDDILINRPAKKHLELYDRDLKHFRISKALDRVLDPTCTIKTPEITVSIIKELNRRGVLANALAGRDEKEISHVLNFLIRNLSQPRFAPVLINAAEIIIDIYLPVIGQSPVVDKKFLLLQGLVEKEIDYQRELLETLGMMDMLFATMRRKEGTSVLEHTSDGFPENKKIES

system: mSWI/SNF complexes; assay: mSWI/SNF complex purification with HA-tagged baits and mass spectrometry (peptide counts); parameters: species or system human; settings: 293_HA-BRD7 bait purification, mass spectrometry; total peptides per co-purified protein

Total, 3:
B1
B2
B3
B4
B5
B6
B7

same assay, conditions: 293_HA-BRD7 bait purification, mass spectrometry; unique peptides per co-purified protein

Unique, 3:
B1
B2
B3
B4
B5
B6
B7
